Results are given in words; binding and its absence hold for the method and conditions named. Some results given as binding are weak or reduced against the parent protein; the word gives no strength.
Molecular target: human mitochondrial threonyl-tRNA synthetase, mature form (human) (UniProt Q9BW92)
Test: SEC; gel filtration of purified hmtThrRS in the absence or presence of GSNO; column and buffer not stated; both purified

binding: binds
B1: human mitochondrial threonyl-tRNA synthetase, mature form (enzyme, UniProt Q9BW92 20-718)
chain: LHTAVVSTPPRWLAERLGLFEELWAAQVKRLASMAQKEPRTIKISLPGGQKIDAVAWNTTPYQLARQISSTLADTAVAAQVNGEPYDLERPLETDSDLRFLTFDSPEGKAVFWHSSTHVLGAAAEQFLGAVLCRGPSTEYGFYHDFFLGKERTIRGSELPVLERICQELTAAARPFRRLEASRDQLRQLFKDNPFKLHLIEEKVTGPTATVYGCGTLVDLCQGPHLRHTGQIGGLKLLSNSSSLWRSSGAPETLQRVSGISFPTTELLRVWEAWREEAELRDHRRIGKEQELFFFHELSPGSCFFLPRGTRVYNALVAFIRAEYAHRGFSEVKTPTLFSTKLWEQSGHWEHYQEDMFAVQPPGSDRPPSSQSDDSTRHITDTLALKPMNCPAHCLMFAHRPRSWRELPLRLADFGALHRAEASGGLGGLTRLRCFQQDDAHIFCTTDQLEAEIQSCLDFLRSVYAVLGFSFRLALSTRPSGFLGDPCLWDQAEQVLKQALKEFGEPWDLNSGDGAFYGPKIDVHLHDALGRPHQCGTIQLDFQLPLRFDLQYKGQAGALERPVLIHRAVLGSVERLLGVLAESCGGKWPLWLSPFQVVVIPVGSEQEEYAKEAQQSLRAAGLVSDLDADSGLTLSRRIRRAQLAHYNFQFVVGQKEQSKRTVNIRTRDNRRLGEWDLPEAVQRLVELQNTRVPNAEEIF

Source: article PMC7337905, “Nitrosative stress inhibits aminoacylation and editing activities of mitochondrial threonyl-tRNA synthetase by S-nitrosation” (Nucleic Acids Research, 2020)
